# The other results are listed elsewhere or left out.
# Columns and labels:
# Experiment in all cases: protein microarray (ProtoArray v5.0), streptavidin-Alexa Fluor 647
# Conditions in all cases: 3'-biotin; 20 mM Tris (pH 7.5), 5 mM MgCl2, 100 mM KCl, 0.1% Tween-20, A/T-rich and random oligonucleotide blockers; temperature not stated; high values mean tight binding
# C19orf12 (human) = tested on: C19orf12 (human)
# C19orf39 (human) = tested on: C19orf39 (human)
# C1QC (human) = tested on: C1QC (human)
# C1orf109 (human) = tested on: C1orf109 (human)
# C1orf119 (human) = tested on: C1orf119 (human)
# C1orf162 (human) = tested on: C1orf162 (human)
# C1orf2 (human) = tested on: C1orf2 (human)
# C1orf213 (human) = tested on: C1orf213 (human)
# C1orf38 (human) = tested on: C1orf38 (human)
# C1orf51 (human) = tested on: C1orf51 (human)
sequence,measurement,setting,value
GGGAGGCTGAGGCAGG [G4-1 biotinylated (PQS2)],binding signal,C19orf12 (human),-0.355 z-score
same,binding signal,C19orf39 (human),-0.318 z-score
same,binding signal,C1QC (human),-0.306 z-score
same,binding signal,C1orf109 (human),-0.318 z-score
same,binding signal,C1orf119 (human),-0.324 z-score
same,binding signal,C1orf162 (human),-0.334 z-score
same,binding signal,C1orf2 (human),-0.304 z-score
same,binding signal,C1orf213 (human),-0.306 z-score
same,binding signal,C1orf38 (human),-0.328 z-score
same,binding signal,C1orf51 (human),-0.329 z-score
